Source: article PMC7017003
These are yes or no findings as the source states them, for the method shown. In cells and extracts the contact can be indirect. Some entries that bind do so weakly or less than the wild type. For some assays here: Sequences can lack the tags named with a protein.

How the values were obtained:
[1] = biological target: tumor necrosis factor receptor 3 with V5 tag (human) (UniProt P36941); assay: co-IP; anti-V5-tag antibody beads with 100 µg lysate of co-transfected HEK293 cells, 2 h at 4 °C, washed thrice with TBS; immunoblot for OSM and V5; cells untreated or exposed to methylmercuric chloride for 6 h
[2] = biological target: T1, TNFR3-V5 with the extracellular domain deleted (human) (UniProt P36941); assay: as above
T1 sequence: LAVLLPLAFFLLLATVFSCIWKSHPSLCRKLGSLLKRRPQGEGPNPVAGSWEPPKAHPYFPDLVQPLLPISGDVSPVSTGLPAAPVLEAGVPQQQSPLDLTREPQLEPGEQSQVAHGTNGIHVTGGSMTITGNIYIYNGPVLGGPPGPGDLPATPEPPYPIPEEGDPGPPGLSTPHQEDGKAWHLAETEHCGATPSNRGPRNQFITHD

B1: oncostatin M (ligand, UniProt P13725 26-221)
chain: AAIGSCSKEYRVLLGQLQKQTDLMQDTSRLLDPYIRIQGLDVPKLREHCRERPGAFPSEETLRGLGRRGFLQTLNATLGCVLHRLADLEQRLPKAQDLERSGLNIEDLEKLQMARPNILGLRNNIYCMAQLLDNSDTAEPTKAGRGASQPPTPTPASDAFQRKLEGCRFLHGYHRFMHSVGRVFSKWGESPNRSRR
With B1 the binding [1] was “binds” and the binding [2] was “no binding”.
